No constants are given. Whether binding was seen depends on the method and setting. For some assays here: Binding seen in cells or lysates may run through a third protein. Some binding calls cover weakened binding; strength is not graded here. For some assays here: Sequences can lack the tags named with a protein.
T1: Endogenous ELK-1 (human (endogenous in DU145)) (UniProt P19419)
T1 sequence: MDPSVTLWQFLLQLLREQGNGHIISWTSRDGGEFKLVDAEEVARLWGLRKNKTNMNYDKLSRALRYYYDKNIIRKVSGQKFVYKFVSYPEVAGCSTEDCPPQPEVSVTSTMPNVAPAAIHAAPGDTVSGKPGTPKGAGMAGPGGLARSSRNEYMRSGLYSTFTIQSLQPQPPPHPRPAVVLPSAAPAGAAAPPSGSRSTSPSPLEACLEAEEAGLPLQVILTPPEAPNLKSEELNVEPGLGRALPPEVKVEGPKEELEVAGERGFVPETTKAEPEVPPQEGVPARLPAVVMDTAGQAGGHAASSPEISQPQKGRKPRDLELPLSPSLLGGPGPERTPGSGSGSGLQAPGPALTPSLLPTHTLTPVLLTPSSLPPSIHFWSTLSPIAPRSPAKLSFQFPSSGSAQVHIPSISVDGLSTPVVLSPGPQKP

T2: GST-USP17 (human) (UniProt Q6R6M4)
T2 sequence: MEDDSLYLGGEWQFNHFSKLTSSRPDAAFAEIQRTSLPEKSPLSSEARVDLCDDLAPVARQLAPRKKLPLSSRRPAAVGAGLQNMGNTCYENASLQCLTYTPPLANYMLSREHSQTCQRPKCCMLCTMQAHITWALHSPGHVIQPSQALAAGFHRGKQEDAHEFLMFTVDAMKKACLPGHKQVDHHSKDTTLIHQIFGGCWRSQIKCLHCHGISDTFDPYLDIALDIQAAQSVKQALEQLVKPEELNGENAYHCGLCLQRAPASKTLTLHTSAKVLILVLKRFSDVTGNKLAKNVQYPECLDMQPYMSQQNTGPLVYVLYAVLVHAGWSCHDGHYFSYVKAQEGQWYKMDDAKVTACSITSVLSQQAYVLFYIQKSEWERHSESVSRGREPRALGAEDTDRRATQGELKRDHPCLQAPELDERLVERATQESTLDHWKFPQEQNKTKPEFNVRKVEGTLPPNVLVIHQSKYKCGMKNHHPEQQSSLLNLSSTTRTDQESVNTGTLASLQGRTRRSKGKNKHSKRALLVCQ

B1: Endogenous USP17 (enzyme, UniProt Q6R6M4 1-530)
chain: T2 sequence
B2: recombinant ELK-1 (protein, UniProt P19419 1-428)
chain: T1 sequence

Legend:
[1] = biological target: T1, Endogenous ELK-1 (human (endogenous in DU145)); experiment: co-IP; WCEs of DU145 cells, endogenous proteins; immunoprecipitates collected with control IgG or αELK-1 antibody; immunoblotting
GST-USP17 (human) = biological target: T2, GST-USP17 (human); experiment: pull-down; GST or GST-USP17 fusions on glutathione agarose beads incubated with recombinant ELK-1, ELK-1 deletion mutants or ERK2; bound proteins detected by immunoblotting with an anti-His antibody; both purified

| Binder | binding [1] | binding (GST-USP17 (human)) |
| --- | --- | --- |
| B1 | binds | – |
| B2 | – | binds |

From PMC6511843
